Laboratory results published in publication PMC7033647.
These are yes or no findings as the source states them, for the method shown. Binding seen in cells or lysates may run through a third protein. A result given as binding can be weak or reduced; the word gives no strength. Where a sequence is shown, tags or fusion partners need not be part of it.

Biological target: T1, SIAH1 with a C-terminal FLAG epitope tag (UniProt Q8IUQ4)
T1 sequence: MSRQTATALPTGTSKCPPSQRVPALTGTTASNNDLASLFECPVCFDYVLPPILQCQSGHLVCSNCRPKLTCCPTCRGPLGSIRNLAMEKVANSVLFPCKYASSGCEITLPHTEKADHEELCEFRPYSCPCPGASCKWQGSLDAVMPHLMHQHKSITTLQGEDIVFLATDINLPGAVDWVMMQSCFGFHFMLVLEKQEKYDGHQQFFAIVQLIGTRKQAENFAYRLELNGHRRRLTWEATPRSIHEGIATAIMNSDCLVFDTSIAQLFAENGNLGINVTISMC
Test: co-IP; HeLa cells treated with MG132 and co-transfected with SIAH1-FLAG and MyD88-myc; total cell lysates immunoprecipitated with anti-FLAG or an isotype control antibody; western blot for MyD88

binding: binds
Substance: MyD88 with a C-terminal myc epitope
